Publication PMC9635925, “Biological screening of a unique drug library targeting MRGPRX2” (Frontiers in Immunology, 2022)
Positions count from the first letter of the chain named.

Experiments:
[1] = target: T1, MRGPRX2-WT (wild-type MRGPRX2 receptor) (Homo sapiens, UniProt Q96LB1); test: Primary HTS, Ca2+ mobilization (fluorescence ratio, B-score) in HEK293-Gα15 cells stably expressing wild-type MRGPRX2; type: cell-based; conditions: 10 μM compound, Supplementary Table 1
T1 construct: expressed in transfected cells
T1 sequence (Q96LB1 1-330): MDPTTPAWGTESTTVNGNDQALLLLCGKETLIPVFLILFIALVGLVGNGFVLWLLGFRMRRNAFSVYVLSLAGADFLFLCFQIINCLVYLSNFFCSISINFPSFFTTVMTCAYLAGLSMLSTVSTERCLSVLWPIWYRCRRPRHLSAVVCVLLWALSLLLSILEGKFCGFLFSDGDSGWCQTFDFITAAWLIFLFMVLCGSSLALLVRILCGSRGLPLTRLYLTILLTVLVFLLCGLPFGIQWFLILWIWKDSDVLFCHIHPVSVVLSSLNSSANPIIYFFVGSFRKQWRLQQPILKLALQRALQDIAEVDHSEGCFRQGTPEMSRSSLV
Procedure: (§1) We performed an experimental HTS on the Johns Hopkins Drug Library, which includes 1,811 (57%) FDA-approved drugs among 3,456 total compounds (28% of all known drugs worldwide) ([15]). We performed the HTS at the Johns Hopkins University ChemBioCORE Facility and employed HEK293-Gα15 cell lines that stably expressed MRGPRX2 protein.
(§2) We utilized 10 μM compounds (each compound was tested in triplicate) and calculated the compound effect using the signal-to-background fluorescence ratio (see Supplementary Methods).
(§3) In the HTS, we determined MRGPRX2 activation by a Ca^2+ mobilization assay that recorded a fluorescence change by utilizing a Functional Drug Screening System (FDSS 6000; Hamamatsu); we evaluated the compound effect using the calculated fluorescence ratio. We further applied the B-score normalization, which provided robust corrections for variation in fluorescence ratio ([22]).
(§4) We performed an experimental high-throughput screening (HTS) on the Johns Hopkins Drug Library (JHDL), which includes 1,811 (57%) FDA-approved drugs among 3,456 total compounds (28% of all known drugs worldwide). […] We evaluated compound effect using the calculated fluorescence ratio. We further calculated B-scores, which are a relative potency score similar to Z scores in that they are the ratio of an adjusted raw value in the numerator to a measure of variability in the denominator.

[2] = target: T2, MRGPRX2-MUT (MRGPRX2 N62S mutation) (Homo sapiens, UniProt Q96LB1, N62S); test: Primary HTS, Ca2+ mobilization (fluorescence ratio, B-score) in HEK293-Gα15 cells stably expressing the MRGPRX2 N62S mutation; type: cell-based; conditions: Supplementary Table 1
T2 construct: expressed in transfected cells
T2 sequence (Q96LB1 1-330 N62S): T1 sequence (Q96LB1 1-330) with N62S
Procedure: as §1, §2, §3, §4

With `COc1ccc(CC(C)NCC(O)c2ccc(O)c(NC=O)c2)cc1` (stereo not drawn) [Formoterol] the “B-scores (WT)” value [1] was 46.02, the “B-scores (MUT)” value ([2]; 10 μM compound, MRGPRX2-MUT (N62S) cells) was 17.88 and the “Change of B-scores (%)” value ([2]; MRGPRX2-MUT in comparison to MRGPRX2-WT cells, 10 μM) was -61.14%.
